Experimental data taken from US20260258115A1.
Numbering of substitutions follows the chain as printed. These are yes or no findings as the source states them, for the method shown.

B1: ADI-14390 (antibody, V domains shown)
VH: QVQLVESGPGLVKPSETLSLTCAVSGYSISSGYYWGWIRQPPGKGLEWIGNIYHSGSTYYNPSLKSRVTISVDTSKNQFSLKLSSVTAADTAVYYCARATLRFTLVREVVVTACDAFDIWGQGTTVTVSS
VL: QSALTQPASVSGSPGQSITISCTGTSSDVGSYNLVSWYQQHPGKVPKLVIYEVNKRPSGVSNRFSGSKSGNTASLTISGLQAEDEADYYCCSYAGSSTFVVFGGGTKLTVL
B2: ADI-19489 (antibody, V domains shown)
VH: QITLKESGPALVKPTQTLTLTCTFSGFSLSTSGMCVSWIRQPPGKALEWLARIDWDDDKYYSTSLKTRLTISKDTSKNQVVLTMTNMDPVDTATYYCARMCWGNYVPIDAFDIWGQGTMVTVSS
VL: DIQLTQSPSSLSASVGDRVTITCRASQGIRNDLGWYQQKPGKAPKRLIYAASSLQSGVPSRFSGSGSGTEFTLTISSLQPEDFATYYCLQHNSYPPTFGQGTKVDIK
B3: ADI-25505 (antibody, V domains shown)
VH: EVQLVESGGGLVKPGGSLRLSCAASGFTFSSYSMNWVRQAPGKGLEWVSSISSSSSYIYYADSVKGRFTISRDNAKNSLYLQMNSLRAEDTAVYYCARVVGYSGSYLDYWGQGTLVTVSS
VL: QSVVTQPPSVSGAPGQRVTISCTGSSSNIGAGYDVHWYQQLPGTAPKLLIYGNSNRPSGVPDRFSGSKSGTSASLAITGLQAEDEADYYCQSYDSSLSGVVFGGGTKLTVL
B4: ADI-22773 (antibody, V domains shown)
VH: QVQLVQSGAEVKKPGASVKVSCKASGYTFTSYGISWVRQAPGQGLEWMGWISAYNGNTNYAQKLQGRVTMTTDTSTSTAYMELRSLRSDDTAVYYCARESALSRDGYNYGDVDYWGQGTLVTVSS
VL: ETTLTQSPLSLPVTLGQPASISCRSSQSLVYSDGNTYLNWFQQRPGQSPRRLIYKVSNRDSGVPDRFSGSGSGTDFTLKISRVEAEDVGVYYCMQGTHWPPTFGQGTKLEIK
B5: ADI-24854 (antibody, V domains shown)
VH: EVQLVESGGGLVKPGGSLRLSCAASGFTFSSYSMNWVRQAPGKGLEWVSSISSSSSYIYYADSVKGRFTISRDNAKNSLYLQMNSLRAEDTAVYYCARDRRFGELFYFDYWGQGTLVTVSS
VL: QSVLTQPPSVSGAPGQRVTISCTGSSSNIGAGYDVHWYQQLPGTAPKLLIYGNSNRPSGVPDRFSGSKSGTSASLAITGLQAEDEADYYCQSYDSSLSGNWVFGGGTKLTVL
B6: ADI-22766 (antibody, V domains shown)
VH: EVQLVESGGGLVQPGRSLRLSCAASGFTFDDYAMHWVRQAPGKGLEWVSGISWNSGSIGYADSVKGRFTISRDNAKNSLYLQMNSLRAEDTALYYCAKDGRFSLSHTYYFDYWGQGTLVTVSS
VL: QPVLTQPPSASGSPGQSVTISCTGTSSDVGGYNYVSWYQQHPGKAPKLMIYEVSKRPSGVPNRFSGSKSGNTASLTVSGLQAEDEADYYCSSYAGSNNLYVFGTGTKVTVL
B7: ADI-24829 (antibody, V domains shown)
VH: EVQLLESGGGLVKPGGSLRLSCAASGFTFSSYSMNWVRQAPGKGLEWVSSISSSSSYIYYADSVKGRFTISRDNAKNSLYLQMNSLRAEDTAVYYCARGFHYYGSGSHDAFDIWGQGTMVTVSS
VL: QPVLTQPPSVSGAPGQRVTISCTGSSSNIGAGYDVHWYQQLPGTAPKLLIYGNSNRPSGVPDRFSGSKSGTSASLAITGLQAEDEADYYCQSYDSSLSGVFGGGTKLTVL
B8: ADI-24838 (antibody, V domains shown)
VH: EVQLLESGGGLVKPGGSLRLSCAASGFTFSSYSMNWVRQAPGKGLEWVSSISSSSSYIYYADSVKGRFTISRDNAKNSLYLQMNSLRAEDTAVYYCARQGVGTVTTWNYYYYYMDVWGKGTTVTVSS
VL: B7 VL with P2S, L4V, G99W
B9: ADI-21018 (antibody, V domains shown)
VH: EVQLLESGGGLVKPGGSLRLSCAGSGFTLSSYGMNWVRQAPGQGLEWISSISSSSSYINYADSVKGRFTISRDNAQNSLYLQLNSLRAEDTAVYYCARGGLGYDYGLGSYTYADYWGQGTLVTVSS
VL: B3 VL with I29T, V35I, A45G, S54K, V100W, L108V
B10: ADI-21049 (antibody, V domains shown)
VH: EVQLVESGGGLVKPGGSLRLSCSASGFAFSSYSMNWVRQAPGKGLEWVSSISASSSYIFYADSVKGRFTISRDNAKNSLYLQMNSLRAEDTAFYYCARALSPGYGDYRDYWGQGTLVTVSS
VL: B7 VL with P2S, L4V, T44A, S54N, Y88F, S95H, S96N, G99V
B11: ADI-21036 (antibody, V domains shown)
VH: QVQLVQSGAEVKEPGKSLKISCKGSGNHFGNYWIAWVRQMPGKGLEWMGIIYPGDSDTRYSPSFQDQVTISVDKSINTVYLQWSSLKAADTATYYCAGSKLGNSWYTIYDSWGQGTLVTVSS
VL: NFMLTQPASVSGSPGQSITISCAGPSALIGVYNLVSWYQQVPGKAPKLIIYEGSKRPSGVSHRFSGSKSGYTASLTISGLQTEDEADYYCCSYAGSGTSVVFGGGTKVTVL
B12: ADI-21028 (antibody, V domains shown)
VH: EVQLVESGGALVKPGGSLRLSCVASGFTFSDYYMHWVRQAPGKGLEWVSYISSTSSFTNYADSVKGRFIISRDNAKNSLYLQLNSLRAEDTAVYYCARDESSGWQTRRHFGMDVWGQGTLVTVSS
VL: EIVMTQSPSTLSASVGDRVTITCRASQSLNTWLAWYQHKPGKAPKLLISTASSLQSGVPSRFSASGSGTEFTLTISSLQPDDFATYYCQQFRGTFGPGTKVEIK

What follows are binders tested against RSV postfusion F (postF), subtype B (respiratory syncytial virus subtype B) (assay: BLI).
In the case of B1, the binding is reported as “no binding”. In the case of B2, the binding is reported as “no binding”. For B3, the binding was “no binding”. B4 was tested, and the binding was “no binding”. With B5 the binding was “no binding”. B6 was tested, and the binding was “no binding”. With B7 the binding was “no binding”. B8 was tested, and the binding was “no binding”.

These binders were tested against RSV postfusion F (postF), subtype B (respiratory syncytial virus, subtype B) (assay: BLI, IgG).
In the case of B9, the binding is reported as “no binding”. In the case of B10, the binding is reported as “no binding”. In the case of B11, the binding is reported as “no binding”. B12 was tested, and the binding was “no binding”.
